In PubChem BioAssay AID330 (DTP/NCI, 2004):
The list does not hold the whole screen: it gathers tests that were run many times, whatever their T/C, doses with no T/C, and many T/C values between a quarter and a half above the control. Further doses and runs are listed elsewhere. T/C: endpoint of the treated group in % of that of the vehicle group. Some entries give survivors of the animals treated and no T/C: the source files T/C as zero there, which appears to mark a toxic dose or a test without result, not a measured value. Some survivor counts are full or nearly so, which does not show that the dose was tolerated: survival well below the control is almost never listed, so the zero probably covers shortened survival too. Counts of survivors are from the toxicity check (mostly the fifth day) where no day follows; animals may have died later. Schedule codes are those of the source, taken here to give the interval after Q, in days (D) or hours (H), and the number of doses after X. Some doses were run more than once; their values stand side by side, smallest first. For survival time, the PubChem record calls one and a half times the control and up active, and a quarter to a half above the control has no call in these data; cut-offs in other NCI protocols can differ. Some T/C values carry the count of animals alive at the toxicity check (mostly the fifth day); without a count, all were alive then. Counts like (3×) count equal records among those shown.

System: P388 leukemia ip, CD2F1 mice, survival T/C
Experiment: NCI In Vivo Anticancer Drug Screen. Data for tumor model P388 Leukemia (intraperitoneal) in CD2F1 (CDF1) mice
Conditions: T/C endpoint: median survival time, higher T/C = longer survival
[1] = dose: 50.0 mg/kg/injection, schedule: Q01DX009 (ip), vehicle: saline
[2] = dose: 200.0 mg/kg/injection, schedule: Q01DX009 (ip), vehicle: saline
[3] = dose: 50.0 mg/kg/injection, schedule: Q01DX009 (ip), vehicle: Klucel (hydroxypropylcellulose) (HPC)
[4] = dose: 200.0 mg/kg/injection, schedule: Q01DX005 (ip), vehicle: Klucel (hydroxypropylcellulose) (HPC)
[5] = dose: 100.0 mg/kg/injection, schedule: Q01DX005 (ip), vehicle: Klucel (hydroxypropylcellulose) (HPC)

CN1CCN(c2ccc3nc(-c4ccc5nc(-c6ccc(O)cc6)[nH]c5c4)[nH]c3c2)CC1
T/C (dose: 25.0 mg/kg/injection, schedule: Q01DX009 (ip), vehicle: saline): 135 % of control | T/C (dose: 30.0 mg/kg/injection, schedule: Q01DX009 (ip), vehicle: saline, evaluated on day 30): 144 and 149 % of control | T/C (dose: 30.0 mg/kg/injection, schedule: Q01DX009 (ip), vehicle: saline, evaluated on day 45): 148, 153, 158, 161 % of control | T/C (dose: 30.0 mg/kg/injection, schedule: Q01DX009 (ip), vehicle: saline, evaluated on day 60): 150 % of control | T/C (dose: 44.0 mg/kg/injection, schedule: Q01DX009 (ip), vehicle: saline, evaluated on day 30): 148, 156, 158, 159 % of control | T/C (dose: 44.0 mg/kg/injection, schedule: Q01DX009 (ip), vehicle: saline, evaluated on day 45): 149, 155, 156, 158, 162, 163 % of control | T/C (dose: 44.0 mg/kg/injection, schedule: Q01DX009 (ip), vehicle: saline, evaluated on day 60): 150 and 160 % of control | T/C [1]: 135 % of control | T/C (dose: 67.0 mg/kg/injection, schedule: Q01DX009 (ip), vehicle: saline, evaluated on day 30): 159, 161, 162, 163, 169 % of control | T/C (dose: 67.0 mg/kg/injection, schedule: Q01DX009 (ip), vehicle: saline, evaluated on day 45): 146, 156, 158, 159 (2×), 161 % of control | T/C (dose: 67.0 mg/kg/injection, schedule: Q01DX009 (ip), vehicle: saline, evaluated on day 60): 150 [7 of 9 alive], 154, 155 % of control | T/C (dose: 100.0 mg/kg/injection, schedule: Q01DX009 (ip), vehicle: saline, evaluated on day 30): 150 (2×), 152 [9 of 10 alive], 154, 159 % of control (3×) | T/C (dose: 100.0 mg/kg/injection, schedule: Q01DX009 (ip), vehicle: saline, evaluated on day 45): 155, 159 (2×), 161, 166, 174 % of control | T/C (dose: 100.0 mg/kg/injection, schedule: Q01DX009 (ip), vehicle: saline, evaluated on day 60): 156 and 158 % of control (2×) | T/C (dose: 125.0 mg/kg/injection, schedule: Q01DX009 (ip), vehicle: saline): 137 % of control [9 of 10 alive] | T/C (dose: 150.0 mg/kg/injection, schedule: Q01DX009 (ip), vehicle: saline, evaluated on day 30): 95, 100, 105, 148, 165 % of control | T/C (dose: 150.0 mg/kg/injection, schedule: Q01DX009 (ip), vehicle: saline, evaluated on day 45): 104, 125, 151, 155, 183 % of control | T/C (dose: 150.0 mg/kg/injection, schedule: Q01DX009 (ip), vehicle: saline, evaluated on day 60): 140 [8 of 9 alive], 141, 171 % of control | survivor count [2]: 4 of 6 and 6 of 6

CC1(c2ccco2)NC(=O)N(Cl)C1=O (stereo not drawn)
survivor count (dose: 400.0 mg/kg/injection, schedule: Q04DX003 (ip), vehicle: saline): 4 of 6

CC(C)(C)OC(=O)CNC(=O)C(Cc1ccccc1)NC(=O)C(CSC(c1ccccc1)(c1ccccc1)c1ccccc1)NC(=O)CNC(=O)C(Cc1ccccc1)NC(=O)CNC(=O)C(CSC(c1ccccc1)c1ccccc1)NC(=O)C(CSC(c1ccccc1)(c1ccccc1)c1ccccc1)NC(=O)OCc1ccccc1 (stereo not drawn)
survivor count (dose: 240.0 mg/kg/injection, schedule: Q01DX005 (ip), vehicle: Klucel (hydroxypropylcellulose) (HPC)): 6 of 6

C/C=C/C=C1\C=Cc2c(C(=O)OC)coc(=O)c21
survivor count (dose: 156.0 mg/kg/injection, schedule: Q01DX005 (ip), vehicle: Klucel (hydroxypropylcellulose) (HPC)): 4 of 6

C[Si](C)(C)OSc1ccccc1[N+](=O)[O-]
T/C (dose: 25.0 mg/kg/injection, schedule: Q01DX009 (ip), vehicle: Klucel (hydroxypropylcellulose) (HPC)): 132 % of control | T/C [3]: 130 % of control

O=C1C(Br)=C(Br)C(=O)C1(Br)Br
T/C (dose: 12.5 mg/kg/injection, schedule: Q01DX009 (ip), vehicle: saline with Tween-80): 127 % of control | survivor count (dose: 25.0 mg/kg/injection, schedule: Q01DX009 (ip), vehicle: saline with Tween-80): 3 of 6

COCN1C(=O)N2C(c3ccccc3)(c3ccccc3)C(C(=O)OC)=C(C(=O)OC)P12(c1ccccc1)c1ccccc1
survivor count (dose: 120.0 mg/kg/injection, schedule: Q01DX005 (ip), vehicle: Klucel (hydroxypropylcellulose) (HPC)): 6 of 6

Nc1ccn(C2CC(O)C(CO)O2)c(=O)n1 (stereo not drawn)
survivor count (dose: 2.3 mg/kg/injection, schedule: Q01DX009 (ip), vehicle: water): 6 of 6 | T/C (dose: 9.38 mg/kg/injection, schedule: Q01DX009 (ip), vehicle: water): 131 % of control

O=C1c2ccccc2C(=O)c2c(Nc3cc4c5c(ccc6c7ccc8c9c(cc(Nc%10cccc%11c%10C(=O)c%10ccccc%10C%11=O)c(c3c56)c97)-c3ccccc3C8=O)C(=O)c3ccccc3-4)cccc21
survivor count [4]: 3 of 5

O=C1NC(=O)C(Cc2ccc(N(CCO)CCO)cc2)(c2ccccc2)N1 (stereo not drawn)
T/C [5]: 126 % of control | T/C [4]: 131 % of control

O=C(c1ccccc1)c1ccc[n+](Cc2ccccc2)c1
survivor count (dose: 200.0 mg/kg/injection, schedule: Q01DX005 (ip), vehicle: saline): 0 of 6

CCN(CC)Cc1cc(Nc2ccnc3cc(N(C)C)ccc23)ccc1O
survivor count [1]: 5 of 6 | survivor count (dose: 100.0 mg/kg/injection, schedule: Q01DX009 (ip), vehicle: saline): 0 of 6 | survivor count [2]: 0 of 6

OC(c1ccccc1)C1CC=CCC1 (stereo not drawn)
T/C (dose: 12.5 mg/kg/injection, schedule: Q04DX003 (ip), vehicle: saline with Tween-80): 139 % of control | T/C (dose: 100.0 mg/kg/injection, schedule: Q04DX003 (ip), vehicle: saline with Tween-80): 149 % of control

CC(C)=CCSC(N)N
survivor count (dose: 120.0 mg/kg/injection, schedule: Q01DX005 (ip), vehicle: saline): 0 of 6 | survivor count (dose: 240.0 mg/kg/injection, schedule: Q01DX005 (ip), vehicle: saline): 0 of 6

COc1cc2c(c(OC)c1OC)-c1ccc(OC)c(=O)cc1[C@@H](NC(=O)C(F)(F)F)CC2
T/C (dose: 0.39 mg/kg/injection, schedule: Q01DX009 (ip), vehicle: Klucel (hydroxypropylcellulose) (HPC)): 125 % of control | survivor count (dose: 0.78 mg/kg/injection, schedule: Q01DX009 (ip), vehicle: Klucel (hydroxypropylcellulose) (HPC)): 1 of 6 | T/C (dose: 97.5 micrograms/kg/injection, schedule: Q01DX009 (ip), vehicle: Klucel (hydroxypropylcellulose) (HPC)): 129 % of control | T/C (dose: 195.0 micrograms/kg/injection, schedule: Q01DX009 (ip), vehicle: Klucel (hydroxypropylcellulose) (HPC)): 130 and 141 % of control | T/C (dose: 390.0 micrograms/kg/injection, schedule: Q01DX009 (ip), vehicle: Klucel (hydroxypropylcellulose) (HPC)): 133 and 142 % of control | survivor count (dose: 780.0 micrograms/kg/injection, schedule: Q01DX009 (ip), vehicle: Klucel (hydroxypropylcellulose) (HPC)): 1 of 6 and 3 of 6 | survivor count (dose: 1560.0 micrograms/kg/injection, schedule: Q01DX009 (ip), vehicle: Klucel (hydroxypropylcellulose) (HPC)): 0 of 6 and 1 of 6

CCc1ccc(C2=C(Cl)C(=O)C(c3ccccc3)=C(Cl)C2=O)cc1
survivor count [5]: 2 of 5 | survivor count [4]: 1 of 5

Nc1ccc2nc3cc4c5ccccc5c(=O)c5cccc(c54)n3c(=O)c2c1
survivor count (dose: 100.0 mg/kg/injection, schedule: Q01DX005 (ip), vehicle: Klucel + Tween-80): 0 of 6 | survivor count (dose: 200.0 mg/kg/injection, schedule: Q01DX005 (ip), vehicle: Klucel + Tween-80): 0 of 6

C[C](C)(C)[Ge]([O][Ge]([c]1ccccc1)[c]1ccccc1)([O][Ge]([c]1ccccc1)[c]1ccccc1)[C](C)(C)C
survivor count (dose: 240.0 mg/kg/injection, schedule: Q01DX005 (ip), vehicle: saline with Tween-80): 3 of 6

CNC(=O)OCc1ccc(NCCN(C)C)c2c(=O)c3cc(O)ccc3sc12
T/C (dose: 1.56 mg/kg/injection, schedule: Q01DX005 (ip), vehicle: saline with Tween-80): 134 % of control | T/C (dose: 3.12 mg/kg/injection, schedule: Q01DX005 (ip), vehicle: saline with Tween-80): 130 % of control | T/C (dose: 6.25 mg/kg/injection, schedule: Q01DX005 (ip), vehicle: saline with Tween-80): 127 % of control

C=CCSC(=S)Nc1nc2ccc([N+](=O)[O-])cc2s1
survivor count [3]: 6 of 6 | survivor count (dose: 100.0 mg/kg/injection, schedule: Q01DX009 (ip), vehicle: Klucel (hydroxypropylcellulose) (HPC)): 6 of 6 | survivor count (dose: 200.0 mg/kg/injection, schedule: Q01DX009 (ip), vehicle: Klucel (hydroxypropylcellulose) (HPC)): 0 of 6
